# Test results as given in US20120052061A1, “THERAPIES FOR TREATING CANCER USING COMBINATIONS OF COX-2 INHIBITORS AND ANTI-HER2(ERBB2) ANTIBODIES OR COMBINATIONS OF COX-2 INHIBITORS AND HER2(ERBB2) RECEPTOR TYROSINE KINASE INHIBITORS” (Tragara Pharmaceuticals Inc., priority 2007, published 2012).
# At least one structure is not confirmed: it was looked up by name or label, or the drawing left a doubt.
# Experiments:
# MCF-7 tumor = settings: po, daily;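 also: mouse MCF-7 tumor model, oral gavage dosing started once mean tumor size reached 100-200 mg, endpoint at tumor volume 0.75 g or 90 days, whichever occurred earlier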
# BT474 tumor = assay: BT474 model, tumor growth delay study (Example 9);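 also: female SCID mice bearing subcutaneous flank BT474 xenografts, oral gavage dosing started at 100-200 mg tumors, caliper volume twice weekly, endpoint tumor 0.75 g or 90 days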
smiles,measurement,setting,value
"Cc1ccc(-c2cc(C(F)(F)F)nn2-c2ccc(S(N)(=O)=O)cc2)cc1 [celecoxib, reference compound]",active as a single agent in MCF-7,MCF-7 tumor,Neither
same,added benefit upon combination with trastuzumab,BT474 tumor,no added benefit
